Test results as given in paper PMC3875382.
Results are given in words; binding and its absence hold for the method and conditions named. Binding seen in cells or lysates may run through a third protein. Some results given as binding are weak or reduced against the parent protein; the word gives no strength. Tags and fused reporters may be left off the sequences shown.

The chains behind the UniProt entries cited, without tags or fusion partners.
UniProt Q8S307: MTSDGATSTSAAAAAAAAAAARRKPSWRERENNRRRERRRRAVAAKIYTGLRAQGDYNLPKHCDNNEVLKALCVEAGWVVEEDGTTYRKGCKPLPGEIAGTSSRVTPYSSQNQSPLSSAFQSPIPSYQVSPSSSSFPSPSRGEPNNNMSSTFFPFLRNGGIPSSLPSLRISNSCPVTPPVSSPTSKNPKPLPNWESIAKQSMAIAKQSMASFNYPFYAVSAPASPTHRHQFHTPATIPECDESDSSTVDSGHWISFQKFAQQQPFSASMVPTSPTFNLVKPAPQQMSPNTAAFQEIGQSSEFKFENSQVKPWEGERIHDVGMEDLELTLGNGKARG
UniProt Q9C519: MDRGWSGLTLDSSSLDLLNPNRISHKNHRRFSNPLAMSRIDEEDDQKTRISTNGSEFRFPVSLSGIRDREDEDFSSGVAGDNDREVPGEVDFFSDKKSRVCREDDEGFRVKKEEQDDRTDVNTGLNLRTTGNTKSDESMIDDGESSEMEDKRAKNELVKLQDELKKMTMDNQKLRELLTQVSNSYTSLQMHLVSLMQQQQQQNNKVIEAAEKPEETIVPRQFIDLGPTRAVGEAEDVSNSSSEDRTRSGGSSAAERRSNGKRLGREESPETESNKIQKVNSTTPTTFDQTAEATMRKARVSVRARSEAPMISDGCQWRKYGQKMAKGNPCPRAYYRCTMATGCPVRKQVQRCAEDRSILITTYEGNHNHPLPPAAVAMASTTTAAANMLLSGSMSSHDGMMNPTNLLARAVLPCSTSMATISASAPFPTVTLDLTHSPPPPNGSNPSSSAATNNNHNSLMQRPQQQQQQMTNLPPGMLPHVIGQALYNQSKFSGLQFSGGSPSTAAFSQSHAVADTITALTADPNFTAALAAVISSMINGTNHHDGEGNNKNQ

Tests used:
[1] = molecular target: BZR1-GFP (expressed in N. benthamiana from the pUb-cYFP-Dest vector) (Arabidopsis) (UniProt Q8S307); test: co-IP; transient co-expression in N. benthamiana leaves; 1 μM epiBL for 1 hr before extraction; BZR1-GFP immunoprecipitated with an anti-GFP antibody (μMACS GFP Isolation Kit); blots with anti-HA or anti-GFP
[2] = molecular target: BZR1-GFP (expressed in Arabidopsis protoplasts; construct of Ryu et al., 2007) (Arabidopsis) (UniProt Q8S307); test: co-IP; transient co-expression in Arabidopsis mesophyll protoplasts, 16 hr after transfection; 1 μM epiBL for 1 hr before extraction; BZR1-GFP immunoprecipitated with an anti-GFP antibody; blots with anti-HA or anti-GFP

Row | binding [1] | binding [2] | Molecule
1 | no binding |  | WRKY6-HA (expressed in N. benthamiana from the pAM-PAT vector) (from UniProt Q9C519 1-553)
2 | binds |  | WRKY40-HA (expressed in N. benthamiana from the pAM-PAT vector) (protein, UniProt Q9SAH7 1-302) MDQYSSSLVDTSLDLTIGVTRMRVEEDPPTSALVEELNRVSAENKKLSEMLTLMCDNYNVLRKQLMEYVNKSNITERDQISPPKKRKSPAREDAFSCAVIGGVSESSSTDQDEYLCKKQREETVVKEKVSRVYYKTEASDTTLVVKDGYQWRKYGQKVTRDNPSPRAYFKCACAPSCSVKKKVQRSVEDQSVLVATYEGEHNHPMPSQIDSNNGLNRHISHGGSASTPVAANRRSSLTVPVTTVDMIESKKVTSPTSRIDFPQVQKLLVEQMASSLTKDPNFTAALAAAVTGKLYQQNHTEK
3 |  | binds | WRKY40-HA (expressed in Arabidopsis protoplasts from the pGWB414 vector) (protein, UniProt Q9SAH7 1-302) MDQYSSSLVDTSLDLTIGVTRMRVEEDPPTSALVEELNRVSAENKKLSEMLTLMCDNYNVLRKQLMEYVNKSNITERDQISPPKKRKSPAREDAFSCAVIGGVSESSSTDQDEYLCKKQREETVVKEKVSRVYYKTEASDTTLVVKDGYQWRKYGQKVTRDNPSPRAYFKCACAPSCSVKKKVQRSVEDQSVLVATYEGEHNHPMPSQIDSNNGLNRHISHGGSASTPVAANRRSSLTVPVTTVDMIESKKVTSPTSRIDFPQVQKLLVEQMASSLTKDPNFTAALAAAVTGKLYQQNHTEK
